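Assay of Toxoplasma gondii numbers, read through their beta-galactosidase reporter with a colour substrate. Compounds at 50 µM. The record gives no direction; the compounds picked for IC50 retests had high values, so higher reads as fewer parasites. About 18,000 compounds were tested under these conditions; 0.94% (about 170) showed 50% or more at least once.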

The filed quantity is “Percent Effect” (%). The controls that fix the scale are not given in the record; negative values are as filed. The compounds are a random part of those screened.

{"compound": "CNC(=O)C1CCN(S(C)(=O)=O)c2cc(C)ccc2O1", "stereo": "stereo unspecified", "Percent Effect": -21.6}
{"compound": "CCc1ccccc1CN", "Percent Effect": 4.838}
{"compound": "O=C(c1cnccn1)N1CCCC1c1ccsc1", "stereo": "stereo unspecified", "Percent Effect": -1.645}
{"compound": "c1cncc(CN2CCC(C3CCNC3)CC2)c1", "stereo": "stereo unspecified", "Percent Effect": 10.1}
{"compound": "COc1cccc(NC(=O)CN(CC(N)=O)C(C)C)c1", "Percent Effect": 4.747}
{"compound": "Cn1cc(C(=O)NCc2cccc(F)c2)ccc1=O", "Percent Effect": -18.93}
{"compound": "CC1=CCN(CCN)CC1", "Percent Effect": -6.273}
{"compound": "CNCCCC(=O)Nc1ccccc1", "Percent Effect": -9.228}
{"compound": "NCCc1ccc2cc[nH]c2c1", "Percent Effect": -7.357}
{"compound": "COC(=O)C(C)(O)Cn1ccccc1=O", "stereo": "stereo unspecified", "Percent Effect": -0.2947}
{"compound": "Cc1cnc(C)c(N2CCNCC2)n1", "Percent Effect": 3.084}
{"compound": "NCCCS(=O)(=O)Cc1ccccc1", "Percent Effect": -6.024}
{"compound": "CC(C)CC(=O)NCc1cccnc1N1CCOCC1", "Percent Effect": -21}
{"compound": "N#Cc1ccc(S(=O)(=O)N2CCNC(=O)C2)cc1", "Percent Effect": 3.926}
{"compound": "Cn1cc(C(N)=O)c(NCc2ccc(F)c(C#N)c2)n1", "Percent Effect": -8.67}
{"compound": "CS(=O)(=O)c1ccc(N2CCNCC2)cc1", "Percent Effect": -5.247}
{"compound": "CCN(CC)C(=O)C(C)NC(=O)c1cc(C#N)c[nH]1", "stereo": "stereo unspecified", "Percent Effect": -1.389}
{"compound": "CNS(=O)(=O)c1ccc(NC2CCC2)cc1OC", "Percent Effect": -3.478}
{"compound": "CN1CCN(c2ccc(NC(=O)C3CC3)cc2)CC1", "Percent Effect": -5.278}
{"compound": "CC(C)n1cncc1CN1CCN(CCO)CC1", "Percent Effect": -1.166}
{"compound": "COC(=O)CN(CCn1cncn1)C1CCCC1", "Percent Effect": 4.595}
{"compound": "CCCN(C)S(=O)(=O)NC(C)c1ccc(OC)c(F)c1", "stereo": "stereo unspecified", "Percent Effect": -2.504}
{"compound": "CC(C)N1CCC(CC(=O)NCCn2cccc2)CC1", "Percent Effect": 6.255}
{"compound": "CCNC(=O)NC(=O)CN(C)Cc1ccccc1", "Percent Effect": 2.385}
{"compound": "Cc1cc(NC(=O)CCNC(=O)C2CCCC2)n(C)n1", "Percent Effect": 1.527}
{"compound": "NCc1ccc(OC(F)F)cn1", "Percent Effect": -0.568}
{"compound": "Cn1cc(CNC(=O)c2c(N)cnn2C)cn1", "Percent Effect": -7.531}
{"compound": "Nc1ccc(CN2CCN(CCO)CC2)cn1", "Percent Effect": 47.61}
{"compound": "COc1ccc(C)cc1Nc1ncnc(N)n1", "Percent Effect": 2.162}
{"compound": "Cc1cc(C(=O)NCCCO)c2ccc(F)cc2n1", "Percent Effect": -5.213}
{"compound": "CN(Cc1cc(F)cc2cccnc12)S(C)(=O)=O", "Percent Effect": 10.12}
{"compound": "CC(C)n1ccnc1CN1CCCC2(C1)OCCO2", "Percent Effect": -11.51}
{"compound": "CC(C)COc1ccc(C(=O)N(C)CC(N)=O)cn1", "Percent Effect": -0.9449}
{"compound": "O=S(=O)(c1cccnc1)N1CCCCC1", "Percent Effect": 4.711}
{"compound": "CCCS(=O)(=O)NCCN1CCOC(C)(C)C1", "Percent Effect": 6.229}
{"compound": "O=C(CSCC(=O)N1CCNC1=O)Nc1ccccc1", "Percent Effect": -0.8144}
{"compound": "Cc1nc(CN2CC3(CCNCC3)OC2=O)co1", "Percent Effect": 3.99}
{"compound": "CN(C)S(=O)(=O)c1cc2c(cc1Cl)OCCO2", "Percent Effect": -13.31}
{"compound": "N#Cc1cccc(C#N)c1", "Percent Effect": 10.83}
{"compound": "CCn1cc(S(=O)(=O)N2CC[S+]([O-])C(C)(C)C2)cn1", "stereo": "stereo unspecified", "Percent Effect": 1.37}
{"compound": "Cc1ncccc1NC(=O)COc1ccccc1C#N", "Percent Effect": -4.322}
{"compound": "CCNCc1ccc2c(c1)OCO2", "Percent Effect": -2.544}
{"compound": "NC(=O)CSc1nnc(-c2ccco2)o1", "Percent Effect": 5.477}
{"compound": "CCN(CCC#N)C(=O)CNc1cc(F)ccc1F", "Percent Effect": 4.491}

Repeated from the top, 3 entries:

Compound	Percent Effect
CNC(=O)C1CCN(S(C)(=O)=O)c2cc(C)ccc2O1 (stereo unspecified)	-21.6%
CCc1ccccc1CN	4.838%
O=C(c1cnccn1)N1CCCC1c1ccsc1 (stereo unspecified)	-1.645%

Source: ChEMBL document CHEMBL3988442, “University of Dundee, Small-Polar-MMV Screening Library” (2021).